Reference: US7094873
Results are given in words; binding and its absence hold for the method and conditions named. In cells and extracts the contact can be indirect. Some results given as binding are weak or reduced against the parent protein; the word gives no strength.

By UniProt entry, the sequences of proteins in these tests, tags left out. Residues count along the entry.
UniProt P11142, residues 540-646: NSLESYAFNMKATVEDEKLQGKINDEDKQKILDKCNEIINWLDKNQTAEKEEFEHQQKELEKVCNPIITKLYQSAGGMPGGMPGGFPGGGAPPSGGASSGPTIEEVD
UniProt P25685: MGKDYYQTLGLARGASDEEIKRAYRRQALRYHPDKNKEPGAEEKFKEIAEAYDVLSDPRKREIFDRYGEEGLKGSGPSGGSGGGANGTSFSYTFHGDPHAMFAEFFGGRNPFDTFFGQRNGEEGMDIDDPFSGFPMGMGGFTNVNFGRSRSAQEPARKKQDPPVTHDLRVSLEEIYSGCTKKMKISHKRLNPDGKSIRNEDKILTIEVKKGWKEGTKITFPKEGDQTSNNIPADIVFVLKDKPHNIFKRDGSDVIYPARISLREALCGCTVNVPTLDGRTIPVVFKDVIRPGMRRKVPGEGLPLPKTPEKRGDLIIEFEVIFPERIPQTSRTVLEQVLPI

Target: GST-Hsc70 (amino acid residues 540-650) (UniProt P11142)
Assay: GST pulldown on glutathione-Sepharose beads, immunoblot

“Human Hsp40 (Stressgen) (from UniProt P25685 1-340)” was tested, and the binding was “binds”.
